In patent publication US10487308B2, “Culture medium composition” (NISSAN CHEMICAL CORPORATION, priority 2014, dated 2019):

Tested on: HeLa cell sphere
Experiment: Cell suspension test of HeLa cell spheres
Assay type: cell-based, human
Conditions: 37° C., 1 hr

With collagen the HeLa cell suspension/sedimentation (0.01% (w/v) in DMEM/F-12) was “sedimentation”, the HeLa cell suspension/sedimentation (0.05% (w/v) in DMEM/F-12) was “suspension” and the HeLa cell suspension/sedimentation (0.1% (w/v) in DMEM/F-12) was “suspension”. For the same substance, the HeLa cell suspension/sedimentation (0.2% (w/v) in DMEM/F-12) was “suspension”.
